PubChem BioAssay AID720505 – Drosophila RNAi Screening Center, 2013
Purpose: 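Fly regulators or components of the CRAC channel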 (primary screen). System: Drosophila S2R+ cells. Reagent: long dsRNA against Drosophila genes. Challenge: thapsigargin (2 µM) in calcium-free buffer to empty internal stores, then 2 mM calcium added back. Measured: 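Fluo-4 signal in 384-well plates read on a FLIPR after thapsigargin (2 µM, calcium-free) store depletion and 2 mM calcium add-back; unnormalised mean endpoint per well; screen run twice, selected wells retested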. Scale: calcium signal and retest calcium signal: higher = more calcium entry after store depletion. Rule for the call: 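Knock-downs counted as hits when calcium entry dropped relative to STIM1 positive and Rho1 negative controls present on each plate; roughly 1500 genes called, with reductions of differing size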. Calls: active = called as lowering calcium entry; inactive = not called.
The screen tested about 20,000 reagents; below is an unselected part of those with a known target gene and a result. In the full data, about 2,100 (10%) were called active. 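Raw plate signals without normalisation; calls rest on control-based scores that were not deposited; replicate 2 separates called from uncalled poorly.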 Unmarked entries are inactive. The numbers tell different reagents against one gene apart. The record does not give: the amount of reagent, the time to read-out.

After knock-down of CG13041, the screen gave calcium signal, replicate 1 = 87.4; calcium signal, replicate 2 = 133.
Against cmb the deposit lists calcium signal, replicate 1 = 90.6; calcium signal, replicate 2 = 103.
For CG11168 the deposit lists calcium signal, replicate 1 = 140; calcium signal, replicate 2 = 213.
Against CG13950 the deposit lists calcium signal, replicate 1 = 99.3; calcium signal, replicate 2 = 173.
With knock-down of CG10171, the screen gave calcium signal, replicate 1 = 66.1 (active); calcium signal, replicate 2 = 97.1.
Against spir, the values are calcium signal, replicate 1 = 93.6; calcium signal, replicate 2 = 112.
Against CG7702, the values are calcium signal, replicate 1 = 96.2; calcium signal, replicate 2 = 160.
For DIP1, the values are calcium signal, replicate 1 = 172; calcium signal, replicate 2 = 82.8; retest calcium signal, replicate 1 = 95.9; retest calcium signal, replicate 2 = 96.8.
DopEcR scored calcium signal, replicate 1 = 75.3; calcium signal, replicate 2 = 83.5.
CG9705 showed calcium signal, replicate 1 = 134; calcium signal, replicate 2 = 99.5.
Silencing of CG11912 gave: calcium signal, replicate 1 = 114; calcium signal, replicate 2 = 173.
Depletion of ArfGAP1 resulted in: calcium signal, replicate 1 = 126; calcium signal, replicate 2 = 97.4.
Knock-down of Muc68E resulted in: calcium signal, replicate 1 = 6655 (active); calcium signal, replicate 2 = 186; retest calcium signal, replicate 1 = 88.5; retest calcium signal, replicate 2 = 101.
After knock-down of COX2 (retired record), the screen gave calcium signal, replicate 1 = 180; calcium signal, replicate 2 = 81.6.
Silencing of Ip259 resulted in: calcium signal, replicate 1 = 71.5; calcium signal, replicate 2 = 126.
For CG40006 #1, the entry reads calcium signal, replicate 1 = 101; calcium signal, replicate 2 = 4060.
CG40006 #2 showed calcium signal, replicate 1 = 96.2; calcium signal, replicate 2 = 7052.
With knock-down of CG40006 #3, the record shows calcium signal, replicate 1 = 104; calcium signal, replicate 2 = 5095.
Knock-down of CG40006 #4 came out at: calcium signal, replicate 1 = 121; calcium signal, replicate 2 = 5393.
SmD2 showed calcium signal, replicate 1 = 105; calcium signal, replicate 2 = 102.
Silencing of bmm gave: calcium signal, replicate 1 = 105; calcium signal, replicate 2 = 114.
Knock-down of CG2604 came out at: calcium signal, replicate 1 = 107; calcium signal, replicate 2 = 76.5.
With knock-down of alpha-Cat, the record shows calcium signal, replicate 1 = 63.9 (active); calcium signal, replicate 2 = 115; retest calcium signal, replicate 1 = 143; retest calcium signal, replicate 2 = 86.
After knock-down of Tsen54, the screen gave calcium signal, replicate 1 = 82.2; calcium signal, replicate 2 = 109.
For Mal-A7, the entry reads calcium signal, replicate 1 = 160; calcium signal, replicate 2 = 114.
Depletion of Oseg2 came out at: calcium signal, replicate 1 = 77.3; calcium signal, replicate 2 = 116.
After knock-down of CG8620, the screen gave calcium signal, replicate 1 = 74.5; calcium signal, replicate 2 = 73.7.
Depletion of Ino80 #1 resulted in: calcium signal, replicate 1 = 237; calcium signal, replicate 2 = 107.
With knock-down of Ino80 #2 the results were calcium signal, replicate 1 = 252; calcium signal, replicate 2 = 150.
After knock-down of Ino80 #3, the screen gave calcium signal, replicate 1 = 250; calcium signal, replicate 2 = 110.
